According to the supplement of paper PMC10849652:
The other results are listed elsewhere or left out.

Amino acid sequences for entries named in this document (tags omitted). A change or cut given only in a name is not applied to a line headed by its entry.
UniProt Q5BKX5: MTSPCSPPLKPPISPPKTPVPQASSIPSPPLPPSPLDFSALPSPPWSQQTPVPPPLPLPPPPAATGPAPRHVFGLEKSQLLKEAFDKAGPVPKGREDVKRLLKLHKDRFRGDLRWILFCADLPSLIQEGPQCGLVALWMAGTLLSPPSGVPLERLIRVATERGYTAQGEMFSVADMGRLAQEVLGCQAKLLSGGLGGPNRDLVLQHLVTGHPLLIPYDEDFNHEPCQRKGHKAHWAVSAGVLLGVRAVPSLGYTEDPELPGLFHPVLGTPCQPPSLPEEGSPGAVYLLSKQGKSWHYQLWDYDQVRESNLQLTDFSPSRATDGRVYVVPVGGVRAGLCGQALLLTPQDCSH
UniProt Q3KRA6: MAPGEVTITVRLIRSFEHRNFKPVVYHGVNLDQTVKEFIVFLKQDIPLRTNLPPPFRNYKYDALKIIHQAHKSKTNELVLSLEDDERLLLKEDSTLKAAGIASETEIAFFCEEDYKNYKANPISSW
UniProt O14523: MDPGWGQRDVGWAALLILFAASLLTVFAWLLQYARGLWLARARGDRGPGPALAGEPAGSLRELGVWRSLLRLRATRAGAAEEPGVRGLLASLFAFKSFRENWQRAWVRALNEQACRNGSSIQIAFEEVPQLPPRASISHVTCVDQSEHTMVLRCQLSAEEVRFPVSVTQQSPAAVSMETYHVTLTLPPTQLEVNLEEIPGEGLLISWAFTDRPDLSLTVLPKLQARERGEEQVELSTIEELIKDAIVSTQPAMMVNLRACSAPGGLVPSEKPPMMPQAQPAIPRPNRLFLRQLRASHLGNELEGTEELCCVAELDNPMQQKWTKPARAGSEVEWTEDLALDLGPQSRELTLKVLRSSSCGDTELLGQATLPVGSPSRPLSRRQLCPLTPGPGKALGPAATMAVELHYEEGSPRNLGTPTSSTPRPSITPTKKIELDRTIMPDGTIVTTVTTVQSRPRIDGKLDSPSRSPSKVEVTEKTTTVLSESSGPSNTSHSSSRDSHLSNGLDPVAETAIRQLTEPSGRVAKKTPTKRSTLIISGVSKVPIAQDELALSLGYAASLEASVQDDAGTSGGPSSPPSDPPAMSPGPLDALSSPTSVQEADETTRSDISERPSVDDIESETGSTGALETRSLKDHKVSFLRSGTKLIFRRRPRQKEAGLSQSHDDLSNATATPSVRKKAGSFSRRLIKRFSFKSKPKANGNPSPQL
UniProt Q7Z7L8: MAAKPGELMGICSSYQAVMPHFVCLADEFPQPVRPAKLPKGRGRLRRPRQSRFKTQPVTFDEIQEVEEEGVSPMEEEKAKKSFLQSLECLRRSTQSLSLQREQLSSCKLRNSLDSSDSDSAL
UniProt Q9Y6J0: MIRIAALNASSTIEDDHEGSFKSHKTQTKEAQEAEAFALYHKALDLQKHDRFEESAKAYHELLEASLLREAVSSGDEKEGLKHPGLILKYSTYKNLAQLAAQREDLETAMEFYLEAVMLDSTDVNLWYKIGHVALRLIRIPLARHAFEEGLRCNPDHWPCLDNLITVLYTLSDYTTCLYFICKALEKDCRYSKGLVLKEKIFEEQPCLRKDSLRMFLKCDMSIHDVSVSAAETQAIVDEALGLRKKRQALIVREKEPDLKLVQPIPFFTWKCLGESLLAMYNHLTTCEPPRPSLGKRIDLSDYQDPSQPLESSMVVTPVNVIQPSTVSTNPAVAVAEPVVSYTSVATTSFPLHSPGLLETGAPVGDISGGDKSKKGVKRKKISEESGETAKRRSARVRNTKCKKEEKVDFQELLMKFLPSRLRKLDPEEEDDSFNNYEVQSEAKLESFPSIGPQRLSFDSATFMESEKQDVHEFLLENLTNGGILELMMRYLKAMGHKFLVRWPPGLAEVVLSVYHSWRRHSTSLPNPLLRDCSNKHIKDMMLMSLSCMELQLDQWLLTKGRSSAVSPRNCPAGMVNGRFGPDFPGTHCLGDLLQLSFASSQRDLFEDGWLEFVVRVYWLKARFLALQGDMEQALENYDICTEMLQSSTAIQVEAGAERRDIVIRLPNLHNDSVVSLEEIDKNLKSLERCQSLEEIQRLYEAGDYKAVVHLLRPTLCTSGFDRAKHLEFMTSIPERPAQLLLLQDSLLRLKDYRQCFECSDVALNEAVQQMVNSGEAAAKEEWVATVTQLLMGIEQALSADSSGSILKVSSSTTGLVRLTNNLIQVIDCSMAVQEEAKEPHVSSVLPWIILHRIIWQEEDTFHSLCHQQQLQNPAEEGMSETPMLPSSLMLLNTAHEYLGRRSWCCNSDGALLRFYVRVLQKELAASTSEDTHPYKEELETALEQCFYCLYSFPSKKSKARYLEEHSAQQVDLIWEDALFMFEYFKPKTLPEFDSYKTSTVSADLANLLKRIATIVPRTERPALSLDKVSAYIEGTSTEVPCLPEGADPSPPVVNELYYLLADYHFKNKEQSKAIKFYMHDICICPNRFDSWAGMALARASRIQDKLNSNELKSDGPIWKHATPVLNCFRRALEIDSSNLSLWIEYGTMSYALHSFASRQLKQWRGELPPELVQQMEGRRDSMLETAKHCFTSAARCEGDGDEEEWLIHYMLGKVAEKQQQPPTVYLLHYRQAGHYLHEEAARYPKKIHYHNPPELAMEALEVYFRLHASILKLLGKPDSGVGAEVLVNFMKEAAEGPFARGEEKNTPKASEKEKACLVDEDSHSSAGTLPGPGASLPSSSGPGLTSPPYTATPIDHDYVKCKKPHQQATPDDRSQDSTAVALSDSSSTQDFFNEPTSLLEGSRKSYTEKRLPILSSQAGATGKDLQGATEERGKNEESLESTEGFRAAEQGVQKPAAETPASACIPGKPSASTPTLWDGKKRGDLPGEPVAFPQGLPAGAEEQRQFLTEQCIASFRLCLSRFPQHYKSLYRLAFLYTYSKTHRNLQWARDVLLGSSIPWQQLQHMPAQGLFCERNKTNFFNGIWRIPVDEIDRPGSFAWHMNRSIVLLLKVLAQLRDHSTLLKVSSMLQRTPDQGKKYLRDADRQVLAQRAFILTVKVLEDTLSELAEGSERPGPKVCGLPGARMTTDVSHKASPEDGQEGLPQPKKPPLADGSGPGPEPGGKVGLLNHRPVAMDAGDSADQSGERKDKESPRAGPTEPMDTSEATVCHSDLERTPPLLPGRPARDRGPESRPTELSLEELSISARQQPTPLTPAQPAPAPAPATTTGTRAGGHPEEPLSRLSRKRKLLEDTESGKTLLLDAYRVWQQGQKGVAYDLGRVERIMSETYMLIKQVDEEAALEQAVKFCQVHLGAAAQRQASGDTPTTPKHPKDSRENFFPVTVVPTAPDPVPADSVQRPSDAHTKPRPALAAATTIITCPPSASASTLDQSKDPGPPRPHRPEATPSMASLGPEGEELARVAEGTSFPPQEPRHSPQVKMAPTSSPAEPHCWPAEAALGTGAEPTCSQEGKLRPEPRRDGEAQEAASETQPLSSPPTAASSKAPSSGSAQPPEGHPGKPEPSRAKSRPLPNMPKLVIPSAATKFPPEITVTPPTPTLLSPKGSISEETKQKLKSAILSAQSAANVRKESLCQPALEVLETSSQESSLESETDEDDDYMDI
UniProt P17655: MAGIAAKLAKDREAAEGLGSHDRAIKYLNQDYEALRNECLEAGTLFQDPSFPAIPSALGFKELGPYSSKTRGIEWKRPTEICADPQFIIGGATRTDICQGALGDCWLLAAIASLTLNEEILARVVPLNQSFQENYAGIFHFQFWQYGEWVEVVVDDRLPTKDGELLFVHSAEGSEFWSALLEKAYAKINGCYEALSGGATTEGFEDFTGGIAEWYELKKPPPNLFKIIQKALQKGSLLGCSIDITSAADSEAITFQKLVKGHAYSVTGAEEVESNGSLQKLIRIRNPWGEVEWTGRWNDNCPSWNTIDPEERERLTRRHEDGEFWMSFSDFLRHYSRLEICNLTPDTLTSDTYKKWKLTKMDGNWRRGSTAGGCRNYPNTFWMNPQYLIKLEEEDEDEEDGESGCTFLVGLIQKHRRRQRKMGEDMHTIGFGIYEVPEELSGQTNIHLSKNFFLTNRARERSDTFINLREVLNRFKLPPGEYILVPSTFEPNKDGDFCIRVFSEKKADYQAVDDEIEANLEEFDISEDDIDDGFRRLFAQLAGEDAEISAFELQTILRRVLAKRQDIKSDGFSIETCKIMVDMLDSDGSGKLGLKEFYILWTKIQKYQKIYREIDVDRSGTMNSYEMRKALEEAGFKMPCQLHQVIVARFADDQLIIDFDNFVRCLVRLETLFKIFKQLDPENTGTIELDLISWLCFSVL
UniProt Q13137: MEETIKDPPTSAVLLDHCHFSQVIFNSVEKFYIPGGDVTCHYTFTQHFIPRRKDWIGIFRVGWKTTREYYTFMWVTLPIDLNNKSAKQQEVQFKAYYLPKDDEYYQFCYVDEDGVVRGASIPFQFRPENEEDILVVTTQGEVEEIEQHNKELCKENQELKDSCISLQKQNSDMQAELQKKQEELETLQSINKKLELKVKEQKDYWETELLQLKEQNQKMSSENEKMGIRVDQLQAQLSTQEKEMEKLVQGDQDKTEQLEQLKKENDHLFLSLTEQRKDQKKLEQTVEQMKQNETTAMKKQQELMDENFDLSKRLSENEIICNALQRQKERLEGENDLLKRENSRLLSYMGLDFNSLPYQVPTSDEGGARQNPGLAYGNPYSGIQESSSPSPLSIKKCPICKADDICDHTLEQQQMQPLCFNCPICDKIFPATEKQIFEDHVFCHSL
UniProt Q96GV9: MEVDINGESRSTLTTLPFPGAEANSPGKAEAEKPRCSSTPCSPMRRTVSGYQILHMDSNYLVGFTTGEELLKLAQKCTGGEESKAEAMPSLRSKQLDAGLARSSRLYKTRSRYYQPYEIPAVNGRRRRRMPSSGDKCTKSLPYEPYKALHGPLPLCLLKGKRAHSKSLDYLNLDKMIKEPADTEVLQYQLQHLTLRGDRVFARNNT
UniProt Q9BVC5: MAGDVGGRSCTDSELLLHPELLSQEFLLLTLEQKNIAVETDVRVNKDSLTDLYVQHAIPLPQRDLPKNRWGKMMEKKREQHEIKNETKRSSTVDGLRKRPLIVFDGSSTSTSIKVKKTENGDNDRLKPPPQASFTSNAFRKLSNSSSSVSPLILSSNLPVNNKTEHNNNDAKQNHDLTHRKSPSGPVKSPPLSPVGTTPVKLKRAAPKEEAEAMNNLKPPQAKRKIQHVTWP
UniProt O43683: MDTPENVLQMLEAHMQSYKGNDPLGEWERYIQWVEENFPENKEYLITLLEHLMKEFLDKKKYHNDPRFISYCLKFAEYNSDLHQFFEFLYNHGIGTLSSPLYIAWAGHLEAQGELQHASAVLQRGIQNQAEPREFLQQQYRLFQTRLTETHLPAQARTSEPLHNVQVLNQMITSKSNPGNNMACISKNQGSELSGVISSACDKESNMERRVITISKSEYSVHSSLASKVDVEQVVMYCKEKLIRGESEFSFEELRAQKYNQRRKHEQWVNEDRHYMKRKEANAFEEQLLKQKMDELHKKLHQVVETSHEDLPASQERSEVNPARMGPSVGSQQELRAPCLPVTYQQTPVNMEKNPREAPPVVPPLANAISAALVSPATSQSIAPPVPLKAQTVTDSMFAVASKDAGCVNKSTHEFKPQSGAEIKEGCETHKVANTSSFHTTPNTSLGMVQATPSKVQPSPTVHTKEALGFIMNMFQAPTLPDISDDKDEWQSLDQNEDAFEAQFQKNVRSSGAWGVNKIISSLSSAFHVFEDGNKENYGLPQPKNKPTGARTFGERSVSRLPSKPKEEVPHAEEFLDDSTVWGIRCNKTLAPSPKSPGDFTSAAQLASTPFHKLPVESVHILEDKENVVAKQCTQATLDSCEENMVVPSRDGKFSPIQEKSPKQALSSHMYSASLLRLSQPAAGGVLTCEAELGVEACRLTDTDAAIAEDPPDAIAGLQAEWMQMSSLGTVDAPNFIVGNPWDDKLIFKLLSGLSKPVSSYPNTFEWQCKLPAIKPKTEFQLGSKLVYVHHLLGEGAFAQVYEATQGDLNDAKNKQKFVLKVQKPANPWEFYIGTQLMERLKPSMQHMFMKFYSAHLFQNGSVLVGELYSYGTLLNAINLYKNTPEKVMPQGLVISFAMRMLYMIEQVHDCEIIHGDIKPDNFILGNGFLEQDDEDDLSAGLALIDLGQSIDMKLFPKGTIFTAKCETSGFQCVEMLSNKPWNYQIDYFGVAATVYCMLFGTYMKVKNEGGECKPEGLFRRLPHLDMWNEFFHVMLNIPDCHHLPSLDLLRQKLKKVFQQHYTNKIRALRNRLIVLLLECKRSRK
UniProt Q96B23: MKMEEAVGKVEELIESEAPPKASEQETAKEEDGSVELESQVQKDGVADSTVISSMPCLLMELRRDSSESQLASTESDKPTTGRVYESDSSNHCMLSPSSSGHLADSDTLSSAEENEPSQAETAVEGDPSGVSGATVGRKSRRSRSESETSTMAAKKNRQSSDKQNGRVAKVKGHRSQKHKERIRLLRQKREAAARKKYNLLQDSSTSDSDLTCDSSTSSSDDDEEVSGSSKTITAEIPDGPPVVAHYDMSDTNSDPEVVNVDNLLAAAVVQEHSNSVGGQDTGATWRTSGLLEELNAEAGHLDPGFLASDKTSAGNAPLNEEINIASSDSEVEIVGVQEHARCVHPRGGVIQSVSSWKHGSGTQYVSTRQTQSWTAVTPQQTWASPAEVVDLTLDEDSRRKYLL

Assays:
Assay in all cases: log2 fold change, soluble protein after heating vs DMSO (PISA); higher = thermal stabilisation; K562 lysate, 10 uM; active = over 0.2 and 3.5 SD of the protein, either way, in both replicates (recomputed)
[1] = compound: Cc1cn(-c2cc(NC(=O)c3ccc(C)c(Nc4nccc(-c5cccnc5)n4)c3)cc(C(F)(F)F)c2)cn1 [nilotinib]
Method in brief: (§1)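 A 30 min treatment with 10 μM compound was applied to crude K562 extract at 1 mg/mL protein in PBS pH 7.4 with 1 mM MgCl2. Heating for 3 min spanned 48°C-58°C, after which aliquots were pooled, adjusted to 0.5% NP-40 at 4°C and spun at 21,000xg for 90 min. TMTpro 16plex LC-MS/MS of the supernatant, with channel sums equalised, gave values recorded as log-two fold change in thermal stability against solvent controls, from duplicates.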

[2] = compound: Cc1nc(Nc2n[nH]c3c2CN(C(=O)N[C@H](CN(C)C)c2ccccc2)C3(C)C)c2sccc2n1
Method in brief: as §1

[3] = compound: Cc1nc(Nc2ncc(C(=O)Nc3c(C)cccc3Cl)s2)cc(N2CCN(CCO)CC2)n1 [dasatinib]
Method in brief: as §1

[4] = compound: Cc1ncc(-c2ccnc(Nc3ccc(S(C)(=O)=O)cc3)n2)n1C(C)C
Method in brief: as §1

[5] = compound: Cn1cc(-c2ccc3c(c2)CCN3C(=O)Cc2cccc(C(F)(F)F)c2)c2c(N)ncnc21
Method in brief: as §1

[6] = compound: Cn1cc(CNCC2CCN(c3ncc(C(=O)NO)cn3)CC2)c2ccccc21 [quisinostat]
Method in brief: as §1

[7] = compound: Cn1cncc1[C@@](N)(c1ccc(Cl)cc1)c1ccc2c(c1)c(-c1cccc(Cl)c1)cc(=O)n2C [tipifarnib]
Method in brief: as §1

[8] = compound: NC(=O)Nc1cc(-c2cccc(F)c2)sc1C(=O)N[C@H]1CCCNC1
Method in brief: as §1

[9] = compound: NC(=O)c1cnc(N[C@@H]2CCCC[C@@H]2N)nc1Nc1cccc(-n2nccn2)c1
Method in brief: as §1

[10] = compound: NC1(c2ccc(-c3nc4ccn5c(=O)[nH]nc5c4cc3-c3ccccc3)cc2)CCC1
Method in brief: as §1

Measured: log2 fold change

C15orf41 (UniProt Q9Y2V0)
inactive: [1] -0.041 | [2] 0 | [3] 0.09 | [4] 0.038 | [5] -0.036 | [6] -0.023 | [7] -0.014 | [8] 0.076 | [9] 0.024 | [10] 0

CA1 (UniProt P00915)
inactive: [1] 0.006 | [2] 0.023 | [3] 0.006 | [4] 0.009 | [5] 0.016 | [6] -0.008 | [7] 0.066 | [8] -0.007 | [9] -0.007 | [10] -0.008

C19orf54 (UniProt Q5BKX5)
inactive: [1] 0.012 | [2] -0.006 | [3] -0.037 | [4] -0.016 | [5] 0.006 | [6] 0.006 | [7] -0.007 | [8] 0.098 | [9] 0.016 | [10] 0.003

CAPZB (UniProt P47756)
inactive: [1] 0.005 | [2] -0.018 | [3] 0.028 | [4] 0.013 | [5] -0.015 | [6] 0.035 | [7] 0.019 | [8] -0.024 | [9] -0.015 | [10] -0.01

C2orf76 (UniProt Q3KRA6)
inactive: [1] 0.002 | [2] -0.045 | [3] 0.034 | [4] -0.003 | [5] 0.037 | [6] 0.012 | [7] 0.092 | [8] 0.004 | [9] 0.048 | [10] 0.079

CALR (UniProt P27797)
inactive: [1] 0.009 | [2] -0.009 | [3] 0.012 | [4] -0.01 | [5] 0.018 | [6] 0.051 | [7] 0.005 | [8] -0.01 | [9] 0.007 | [10] 0.005

CALB1 (UniProt P05937)
inactive: [1] -0.003 | [2] 0.004 | [3] 0.041 | [4] 0.007 | [5] 0.024 | [6] 0.046 | [7] 0.016 | [8] -0.029 | [9] 0.013 | [10] 0.007

C2CD2L (UniProt O14523)
inactive: [1] 0.006 | [2] 0.022 | [3] -0.099 | [4] 0.007 | [5] 0.02 | [6] -0.079 | [7] -0.088 | [8] -0.006 | [9] 0.015 | [10] 0.046

C11orf96 (UniProt Q7Z7L8)
inactive: [1] -0.071 | [2] 0.032 | [3] 0.006 | [4] 0.075 | [5] -0.031 | [6] -0.055 | [7] 0.025 | [8] 0.059 | [9] -0.038 | [10] 0.014

CAPRIN1 (UniProt Q14444)
inactive: [1] -0.012 | [2] -0.008 | [3] 0.025 | [4] -0.002 | [5] -0.019 | [6] 0.048 | [7] 0.006 | [8] -0.002 | [9] -0.023 | [10] 0.036

CALR (UniProt K7EJB9)
inactive: [1] -0.467 | [2] 0.018 | [4] 0.121 | [7] 0.071 | [9] -0.016

CABIN1 (UniProt Q9Y6J0)
inactive: [1] 0.002 | [2] 0.081 | [3] -0.051 | [4] 0.134 | [5] 0.02 | [7] -0.091 | [9] -0.149 | [10] 0.017

C1orf198 (UniProt Q9H425)
inactive: [1] 0.103 | [2] 0.261 | [3] 0.133 | [4] -0.084 | [5] 0.005 | [6] 0.013 | [7] -0.031 | [8] 0.009 | [9] -0.029 | [10] -0.021

CANX (UniProt D6RHJ3)
inactive: [1] -0.055 | [2] 0.129 | [4] 0.191 | [7] 0.126 | [9] -0.103

CAPN1 (UniProt E9PLX0)
inactive: [1] -0.063 | [2] 0.004 | [4] 0.253 | [6] 0.029 | [7] 0.123 | [8] 0.134 | [9] -0.021

BTRC (UniProt Q9Y297)
inactive: [1] 0.006 | [2] 0.02 | [4] -0.003 | [7] 0.02 | [9] 0.059 | [10] 0.031

CAPG (UniProt P40121)
inactive: [1] -0.036 | [2] 0.019 | [3] -0.016 | [4] 0.056 | [5] -0.028 | [6] 0.014 | [7] 0.018 | [8] -0.004 | [9] -0.014 | [10] -0.013

C15orf39 (UniProt Q6ZRI6)
inactive: [1] 0.074 | [2] -0.006 | [3] -0.059 | [4] 0.019 | [5] 0.034 | [6] -0.017 | [7] -0.015 | [8] 0.053 | [10] 0.184

C9orf85 isoform 1 (UniProt Q96MD7)
inactive: [1] -0.016 | [2] -0.002 | [3] -0.012 | [4] -0.06 | [5] 0.039 | [7] -0.009

CAPN2 (UniProt P17655)
inactive: [1] 0.01 | [2] 0.027 | [3] 0.01 | [4] 0.017 | [5] 0.008 | [6] 0.03 | [7] -0.019 | [8] -0.022 | [9] 0.008 | [10] -0.026

BUD13 (UniProt Q9BRD0)
inactive: [1] -0.036 | [2] 0.111 | [3] -0.094 | [4] 0 | [5] 0.019 | [6] -0.044 | [7] 0.028 | [8] -0.014 | [10] -0.019

CALCOCO2 isoform 5 (UniProt Q13137)
inactive: [1] -0.158 | [2] 0.238 | [4] 0.105 | [7] -0.052

CA2 (UniProt P00918)
inactive: [2] -0.021 | [3] -0.076 | [4] 0.029 | [5] -0.042 | [6] 0.003 | [7] 0.013 | [8] 0.054 | [9] 0.054 | [10] -0.069

C5orf30 (UniProt Q96GV9)
inactive: [1] -0.061 | [2] 0.042 | [3] 0.097 | [4] -0.045 | [5] 0.071 | [6] 0.037 | [7] -0.007 | [8] -0.031 | [10] 0.085

CAMKMT (UniProt Q7Z624)
inactive: [1] -0.002 | [2] 0.01 | [3] -0.115 | [4] 0.118 | [5] -0.043 | [7] 0.084 | [9] 0.088

C3AR1 (UniProt Q16581)
inactive: [1] -0.026 | [2] 0.286 | [4] -0.111 | [6] 0.065 | [7] -0.036 | [8] -0.033

Taken from above (7 entries):
C2orf76 (UniProt Q3KRA6)
inactive: [1] 0.002 | [2] -0.045 | [3] 0.034 | [4] -0.003 | [5] 0.037 | [6] 0.012 | [7] 0.092 | [8] 0.004 | [9] 0.048 | [10] 0.079

CALR (UniProt P27797)
inactive: [1] 0.009 | [2] -0.009 | [3] 0.012 | [4] -0.01 | [5] 0.018 | [6] 0.051 | [7] 0.005 | [8] -0.01 | [9] 0.007 | [10] 0.005

CALB1 (UniProt P05937)
inactive: [1] -0.003 | [2] 0.004 | [3] 0.041 | [4] 0.007 | [5] 0.024 | [6] 0.046 | [7] 0.016 | [8] -0.029 | [9] 0.013 | [10] 0.007

C2CD2L (UniProt O14523)
inactive: [1] 0.006 | [2] 0.022 | [3] -0.099 | [4] 0.007 | [5] 0.02 | [6] -0.079 | [7] -0.088 | [8] -0.006 | [9] 0.015 | [10] 0.046

C11orf96 (UniProt Q7Z7L8)
inactive: [1] -0.071 | [2] 0.032 | [3] 0.006 | [4] 0.075 | [5] -0.031 | [6] -0.055 | [7] 0.025 | [8] 0.059 | [9] -0.038 | [10] 0.014

CAPRIN1 (UniProt Q14444)
inactive: [1] -0.012 | [2] -0.008 | [3] 0.025 | [4] -0.002 | [5] -0.019 | [6] 0.048 | [7] 0.006 | [8] -0.002 | [9] -0.023 | [10] 0.036

CALR (UniProt K7EJB9)
inactive: [1] -0.467 | [2] 0.018 | [4] 0.121 | [7] 0.071 | [9] -0.016

Following part.

BTN3A3 (UniProt O00478)
inactive: [1] -0.275 | [2] -0.295 | [3] -0.087 | [4] 0.124 | [5] -0.036 | [6] 0.285 | [7] 0.11 | [8] -0.015 | [10] 0.043

C2orf49 (UniProt Q9BVC5)
inactive: [1] -0.021 | [2] -0.024 | [3] 0.023 | [4] -0.022 | [5] 0.025 | [6] -0.039 | [7] 0.009 | [8] -0.01 | [9] -0.024 | [10] -0.014

BUB1 (UniProt O43683)
inactive: [1] 0.018 | [2] -0.038 | [3] -0.144 | [4] 0.115 | [5] -0.035 | [6] -0.273 | [7] -0.037 | [8] 0.088 | [9] 0.063 | [10] -0.06

CAPZB isoform 2 (UniProt P47756)
inactive: [1] -0.075 | [2] 0.022 | [3] 0.024 | [4] -0.009 | [5] -0.09 | [6] -0.052 | [7] -0.021 | [8] -0.071 | [9] 0.034 | [10] 0.005

C18orf25 isoform 2 (UniProt Q96B23)
inactive: [1] -0.026 | [2] -0.115 | [3] -0.025 | [4] -0.291 | [5] -0.056 | [7] 0.076 | [9] 0.01 | [10] -0.071

C12orf60 (UniProt Q5U649)
inactive: [1] 0.022 | [2] 0.016 | [3] 0.148 | [4] 0.061 | [5] -0.098 | [6] -0.021 | [7] 0.099 | [8] -0.044 | [10] -0.024

C19orf44 (UniProt Q9H6X5)
inactive: [1] 0.039 | [2] -0.207 | [4] 0.026 | [7] -0.124
